Assay results taken from article PMC7501283.
No constants are given. Whether binding was seen depends on the method and setting.

The chains behind the UniProt entries cited, without tags or fusion partners. Residues count along the entry.
UniProt Q96SW2: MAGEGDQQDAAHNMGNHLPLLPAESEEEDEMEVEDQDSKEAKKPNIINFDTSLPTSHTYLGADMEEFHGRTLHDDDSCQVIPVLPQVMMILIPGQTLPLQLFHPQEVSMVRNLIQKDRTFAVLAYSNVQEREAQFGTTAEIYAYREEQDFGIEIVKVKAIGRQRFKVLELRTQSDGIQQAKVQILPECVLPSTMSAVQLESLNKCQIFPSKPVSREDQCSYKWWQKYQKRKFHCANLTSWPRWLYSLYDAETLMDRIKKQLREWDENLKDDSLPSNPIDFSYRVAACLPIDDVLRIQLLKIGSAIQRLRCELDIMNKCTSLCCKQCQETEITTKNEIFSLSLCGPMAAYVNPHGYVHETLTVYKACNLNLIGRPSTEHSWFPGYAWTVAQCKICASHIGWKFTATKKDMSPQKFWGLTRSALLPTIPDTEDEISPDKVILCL
UniProt Q9UJQ4, residues 410-432: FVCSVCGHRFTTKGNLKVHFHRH

Biological target: biotinylated CRBN (cereblon) (human) (UniProt Q96SW2)
Assay: AlphaScreen or HTRF; biotinylated CRBN (streptavidin donor beads) with FLAG-GST-Venus-m1, -m2 or -m3 (anti-DYKDDDDK mAb, Protein A acceptor beads); IMiD 50 µM; 100 mM Tris pH 8.0, 0.01% Tween20, 100 mM NaCl, 1 mg/ml BSA; 26 °C, 1 h; proteins from the wheat cell-free system

Substance: FLAG-GST-Venus-m3 (SALL4 410-432) (from UniProt Q9UJQ4 410-432) (domain or fragment)
- binding: no binding
